PubChem BioAssay AID720505 | Drosophila RNAi Screening Center, 2013
The screen tested about 20,000 reagents; below is a random part of those with a known target gene and a result. Over the whole deposit, about 2,100 (10%) are marked active. 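Raw plate signals without normalisation; calls rest on control-based scores that were not deposited; replicate 2 separates called from uncalled poorly.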 Unmarked entries are inactive. Names joined by + are all predicted targets of the reagent. The record does not give: the amount of reagent, the time to read-out.

- Purpose: 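Genes needed for store-operated calcium entry in fly cells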 (primary screen)
- Cell system: Drosophila S2R+ cells
- Knock-down reagent: long dsRNA against Drosophila genes
- Challenge: thapsigargin (2 µM) in calcium-free buffer to empty internal stores, then 2 mM calcium added back
- Measured: 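Fluo-4 signal in 384-well plates read on a FLIPR after thapsigargin (2 µM, calcium-free) store depletion and 2 mM calcium add-back; unnormalised mean endpoint per well; screen run twice, selected wells retested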
- Scale: calcium signal and retest calcium signal: higher = more calcium entry after store depletion
- Hit rule: 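About 1500 genes called as lowering calcium entry, by varying amounts, judged against per-plate control wells with STIM1 as positive and Rho1 as negative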
- Calls: active = called as lowering calcium entry; inactive = not called

target | dsRNA | calcium signal, replicate 1 | calcium signal, replicate 2 | retest calcium signal, replicate 1 | retest calcium signal, replicate 2
drn + CG43675 | DRSC15147 | 65.6 (active) | 95.9 | – | –
sif (GeneID 43892) | DRSC11395 | 97.7 | 87.4 | – | –
sif (GeneID 43892) | DRSC22065 | 116 | 236 | – | –
sif (GeneID 43892) | DRSC22828 | 98.2 | 79.4 | – | –
Ipo9 (GeneID 41367) | DRSC16813 | 100 | 112 | – | –
EMC3 (GeneID 34479) | DRSC02989 | 112 | 98.8 | – | –
CG4945 (GeneID 36850) | DRSC06904 | 148 | 144 | – | –
Strip (GeneID 38412) | DRSC08194 | 76.7 | 111 | – | –
CG33306 (GeneID 2768915) | DRSC01899 | 92.5 | 83.4 | – | –
CG15198 (GeneID 32065) | DRSC19645 | 99.6 | 82.7 | – | –
CG16888 (GeneID 34789) | DRSC02541 | 128 | 145 | – | –
CG13154 (GeneID 36359) | DRSC06279 | 97.7 | 146 | – | –
CG5194 (GeneID 39037) | DRSC10492 | 102 | 90.1 | – | –
CG4619 (GeneID 34321) | DRSC02764 | 87.4 | 103 | – | –
CG9021 (GeneID 33818) | DRSC03128 | 117 | 188 | – | –
CheB42c (GeneID 2768715) | DRSC04972 | 89 | 170 | – | –
ng1 (GeneID 31300) | DRSC18802 | 81.2 | 115 | – | –
CG7536 (GeneID 32786) | DRSC20050 | 169 | 91.9 | – | –
CG10877 (GeneID 42432) | DRSC14274 | 245 | 223 | – | –
CG13008 (GeneID 32654) | DRSC19527 | 112 | 180 | – | –
CG13008 (GeneID 32654) | DRSC19528 | 104 | 177 | – | –
Fili (GeneID 5740472) | DRSC03907 | 79.7 | 5438 | – | –
Fili (GeneID 5740472) | DRSC04132 | 172 | 117 | – | –
Fili (GeneID 5740472) | DRSC04445 | 197 | 123 | – | –
Or67b (GeneID 39120) | DRSC11241 | 82.8 | 140 | – | –
Prat (GeneID 40935) | DRSC16797 | 78.9 (active) | 124 | – | –

Entries listed so far called active, once more:
target | dsRNA | calcium signal, replicate 1 | calcium signal, replicate 2 | retest calcium signal, replicate 1 | retest calcium signal, replicate 2
drn + CG43675 | DRSC15147 | 65.6 (active) | 95.9 | – | –
Prat (GeneID 40935) | DRSC16797 | 78.9 (active) | 124 | – | –

The list goes on:
target | dsRNA | calcium signal, replicate 1 | calcium signal, replicate 2 | retest calcium signal, replicate 1 | retest calcium signal, replicate 2
Neb-cGP (GeneID 50417) | DRSC17991 | 83.2 | 97.3 | – | –
CG11929 (GeneID 33668) | DRSC00339 | 105 | 118 | – | –
CG31808 (GeneID 10178782) | DRSC22962 | 149 | 106 | – | –
Tollo (GeneID 44497) | DRSC11305 | 90.4 | 144 | – | –
CG1468 (GeneID 31920) | DRSC17946 | 151 | 104 | – | –
CG42541 (GeneID 31344) | DRSC17973 | 154 | 119 | – | –
CG42541 (GeneID 31344) | DRSC18119 | 61.1 (active) | 101 | – | –
CG42541 (GeneID 31344) | DRSC18120 | 169 | 113 | – | –
CG13606 (GeneID 42873) | DRSC14609 | 226 | 169 | – | –
Mnr (GeneID 33098) | DRSC20549 | 207 | 88.2 | – | –
Mnr (GeneID 33098) | DRSC20550 | 73.8 (active) | 63.6 | 230 | 9350
Mnr (GeneID 33098) | DRSC22441 | 114 | 216 | – | –
Cap-H2 (GeneID 41289) | DRSC14908 | 87.9 | 140 | – | –
speck (GeneID 37867) | DRSC04608 | 70 (active) | 172 | – | –
e(y)2 (GeneID 45848) | DRSC19640 | 75.5 | 87.6 | – | –
verm (GeneID 40149) | DRSC11038 | 113 | 121 | – | –
CG5704 (GeneID 48613) | DRSC08572 | 143 | 160 | – | –
CG14190 (GeneID 32891) | DRSC19545 | 82.5 | 108 | – | –
CNMaR (GeneID 39127) | DRSC10224 | 74.6 | 105 | – | –
Gyc76C + CG42637 | DRSC11180 | 105 | 85.2 | – | –
CG32102 (GeneID 317854) | DRSC22015 | 110 | 210 | – | –
APC10 (GeneID 36975) | DRSC06071 | 143 | 154 | – | –
Ypel (GeneID 31949) | DRSC17996 | 116 | 114 | – | –
par-6 (GeneID 32752) | DRSC20359 | 195 | 154 | – | –
Lkr (GeneID 38622) | DRSC09754 | 90.4 | 74.4 | – | –
Acp26Ab (GeneID 33816) | DRSC01856 | 176 | 93.8 | – | –
nsr (GeneID 37577) | DRSC04427 | 158 | 90 | – | –
nsr (GeneID 37577) | DRSC22806 | 81.2 | 127 | – | –
ine (GeneID 33659) | DRSC00822 | 148 | 136 | – | –
CG7384 (GeneID 34447) | DRSC03053 | 91.8 | 92.1 | – | –
